Measurements published in paper PMC6445466.
These are yes or no findings as the source states them, for the method shown. A result given as binding can be weak or reduced; the word gives no strength.

Amino acid sequences for entries named in this document (tags omitted). A change or cut given only in a name is not applied to a line headed by its entry.
UniProt O50835: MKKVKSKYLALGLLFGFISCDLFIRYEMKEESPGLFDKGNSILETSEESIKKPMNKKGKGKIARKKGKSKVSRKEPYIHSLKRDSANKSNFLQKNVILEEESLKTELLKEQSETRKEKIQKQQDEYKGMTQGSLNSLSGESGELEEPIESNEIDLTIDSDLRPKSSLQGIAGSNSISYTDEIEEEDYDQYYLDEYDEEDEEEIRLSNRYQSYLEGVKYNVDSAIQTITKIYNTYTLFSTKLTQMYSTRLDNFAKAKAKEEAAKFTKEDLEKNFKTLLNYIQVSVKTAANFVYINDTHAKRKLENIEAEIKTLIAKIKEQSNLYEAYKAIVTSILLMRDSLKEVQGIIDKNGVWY

Molecular target: T1, human C1r, full-length enzyme (human) (UniProt P00736)
T1 sequence: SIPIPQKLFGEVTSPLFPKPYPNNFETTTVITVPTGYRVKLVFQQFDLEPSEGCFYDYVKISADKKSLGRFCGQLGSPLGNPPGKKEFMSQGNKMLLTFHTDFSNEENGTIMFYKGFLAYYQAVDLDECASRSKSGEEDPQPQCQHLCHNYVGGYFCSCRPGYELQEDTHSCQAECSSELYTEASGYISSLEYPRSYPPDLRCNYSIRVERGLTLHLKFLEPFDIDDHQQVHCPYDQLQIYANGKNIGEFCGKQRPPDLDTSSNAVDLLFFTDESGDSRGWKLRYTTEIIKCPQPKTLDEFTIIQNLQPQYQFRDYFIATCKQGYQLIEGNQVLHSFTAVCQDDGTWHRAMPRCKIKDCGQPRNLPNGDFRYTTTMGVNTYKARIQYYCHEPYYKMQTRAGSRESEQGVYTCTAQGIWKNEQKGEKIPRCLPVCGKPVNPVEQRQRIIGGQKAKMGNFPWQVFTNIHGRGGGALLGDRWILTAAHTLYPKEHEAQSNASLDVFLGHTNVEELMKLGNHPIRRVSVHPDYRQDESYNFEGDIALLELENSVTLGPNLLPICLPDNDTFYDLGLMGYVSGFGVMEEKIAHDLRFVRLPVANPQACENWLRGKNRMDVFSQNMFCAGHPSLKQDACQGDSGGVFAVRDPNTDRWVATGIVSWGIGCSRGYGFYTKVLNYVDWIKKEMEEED
Assay: whole-cell adherence assay; 1 ug human C1r (or BSA) coated on poly-D-lysine coverslips; intact B314 spirochetes expressing the lipoprotein applied for 2 hr at 32 °C, washed, scored by dark field microscopy; only the target purified

Substance: BBK32, full-length lipoprotein expressed in B. burgdorferi strain B314 (B314/pCD100) (from UniProt O50835)
- binding: binds
